Reference: paper PMC6176016
Results are given in words; binding and its absence hold for the method and conditions named. Binding seen in cells or lysates may run through a third protein. Some entries that bind do so weakly or less than the wild type. Sequences can lack the tags named with a protein.

By UniProt entry, the sequences of proteins in these tests, tags left out. Residues count along the entry.
UniProt P25942, residues 21-277: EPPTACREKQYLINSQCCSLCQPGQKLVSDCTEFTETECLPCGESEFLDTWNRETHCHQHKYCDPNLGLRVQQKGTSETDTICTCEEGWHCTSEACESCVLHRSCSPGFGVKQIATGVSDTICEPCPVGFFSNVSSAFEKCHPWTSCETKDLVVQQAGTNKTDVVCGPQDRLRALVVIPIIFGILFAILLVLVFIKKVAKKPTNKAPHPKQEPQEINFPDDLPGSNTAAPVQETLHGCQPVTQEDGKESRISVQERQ

Assays:
Assay in all cases: FRET or BRET; YFP and mCherry labeled proteins co-transfected (1 ug of each plasmid) into HEK-293T cells, 48 h, FRET signal read by FACS (LSRII or LSRFortessa); adding rhAPRIL or rhBAFF had no effect on the TACI-TACI signal
[1] = target: T1, TACI-L (long TACI isoform) labeled with mCherry or YFP (human) (UniProt O14836)
T1 sequence: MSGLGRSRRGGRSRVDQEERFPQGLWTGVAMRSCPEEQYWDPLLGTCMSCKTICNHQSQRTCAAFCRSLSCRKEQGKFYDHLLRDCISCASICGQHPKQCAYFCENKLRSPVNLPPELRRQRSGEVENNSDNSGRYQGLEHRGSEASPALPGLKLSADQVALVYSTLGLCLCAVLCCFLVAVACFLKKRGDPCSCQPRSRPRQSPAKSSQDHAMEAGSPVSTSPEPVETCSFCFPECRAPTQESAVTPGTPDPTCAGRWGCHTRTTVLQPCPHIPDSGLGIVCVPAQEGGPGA

[2] = target: CD40-eYFP (pReceiver-huCD40-eYFP) (human) (UniProt P25942)
[3] = target: T2, TACI-S (short TACI isoform) labeled with mCherry or YFP (human) (UniProt O14836)
T2 sequence: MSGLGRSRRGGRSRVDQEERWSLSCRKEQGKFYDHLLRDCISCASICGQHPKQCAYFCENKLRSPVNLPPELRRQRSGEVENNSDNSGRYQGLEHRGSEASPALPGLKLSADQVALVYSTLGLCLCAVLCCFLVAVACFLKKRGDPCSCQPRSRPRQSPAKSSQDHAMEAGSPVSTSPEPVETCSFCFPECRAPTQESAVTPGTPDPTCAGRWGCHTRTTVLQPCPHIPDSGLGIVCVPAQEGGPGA

B1: TACI-L (long TACI isoform) labeled with mCherry or YFP (receptor, UniProt O14836 1-293)
chain: MSGLGRSRRGGRSRVDQEERFPQGLWTGVAMRSCPEEQYWDPLLGTCMSCKTICNHQSQRTCAAFCRSLSCRKEQGKFYDHLLRDCISCASICGQHPKQCAYFCENKLRSPVNLPPELRRQRSGEVENNSDNSGRYQGLEHRGSEASPALPGLKLSADQVALVYSTLGLCLCAVLCCFLVAVACFLKKRGDPCSCQPRSRPRQSPAKSSQDHAMEAGSPVSTSPEPVETCSFCFPECRAPTQESAVTPGTPDPTCAGRWGCHTRTTVLQPCPHIPDSGLGIVCVPAQEGGPGA
binding [1]: binds
binding [2]: no binding

B2: TACI-L S194X, mCherry labeled (receptor, UniProt O14836 1-193)
chain: MSGLGRSRRGGRSRVDQEERFPQGLWTGVAMRSCPEEQYWDPLLGTCMSCKTICNHQSQRTCAAFCRSLSCRKEQGKFYDHLLRDCISCASICGQHPKQCAYFCENKLRSPVNLPPELRRQRSGEVENNSDNSGRYQGLEHRGSEASPALPGLKLSADQVALVYSTLGLCLCAVLCCFLVAVACFLKKRGDPC
binding [1]: binds
binding [3]: binds
binding [2]: no binding

B3: TACI-S (short TACI isoform) labeled with mCherry or YFP (receptor, UniProt O14836-2 1-247)
chain: MSGLGRSRRGGRSRVDQEERWSLSCRKEQGKFYDHLLRDCISCASICGQHPKQCAYFCENKLRSPVNLPPELRRQRSGEVENNSDNSGRYQGLEHRGSEASPALPGLKLSADQVALVYSTLGLCLCAVLCCFLVAVACFLKKRGDPCSCQPRSRPRQSPAKSSQDHAMEAGSPVSTSPEPVETCSFCFPECRAPTQESAVTPGTPDPTCAGRWGCHTRTTVLQPCPHIPDSGLGIVCVPAQEGGPGA
binding [1]: binds
binding [3]: binds
binding [2]: no binding

B4: TACI-L C104R, mCherry labeled (receptor, UniProt O14836 1-293)
chain: MSGLGRSRRGGRSRVDQEERFPQGLWTGVAMRSCPEEQYWDPLLGTCMSCKTICNHQSQRTCAAFCRSLSCRKEQGKFYDHLLRDCISCASICGQHPKQCAYFRENKLRSPVNLPPELRRQRSGEVENNSDNSGRYQGLEHRGSEASPALPGLKLSADQVALVYSTLGLCLCAVLCCFLVAVACFLKKRGDPCSCQPRSRPRQSPAKSSQDHAMEAGSPVSTSPEPVETCSFCFPECRAPTQESAVTPGTPDPTCAGRWGCHTRTTVLQPCPHIPDSGLGIVCVPAQEGGPGA
binding [1]: binds
binding [3]: binds
binding [2]: no binding

B5: TACI-L A181E, mCherry labeled (receptor, UniProt O14836 1-293)
chain: MSGLGRSRRGGRSRVDQEERFPQGLWTGVAMRSCPEEQYWDPLLGTCMSCKTICNHQSQRTCAAFCRSLSCRKEQGKFYDHLLRDCISCASICGQHPKQCAYFCENKLRSPVNLPPELRRQRSGEVENNSDNSGRYQGLEHRGSEASPALPGLKLSADQVALVYSTLGLCLCAVLCCFLVEVACFLKKRGDPCSCQPRSRPRQSPAKSSQDHAMEAGSPVSTSPEPVETCSFCFPECRAPTQESAVTPGTPDPTCAGRWGCHTRTTVLQPCPHIPDSGLGIVCVPAQEGGPGA
binding [1]: binds
binding [3]: binds
binding [2]: no binding
